The text below walks through data of US20240294551A1 (AMGEN INC., priority 2022, published 2024).

Sequences of proteins named here, by UniProt entry; tags and fusion partners are left off. A line that says so, or that is headed by a name, gives the form on record, which may keep a tag or linker. Residues count along the entry.
UniProt P01116, 1-164 with tags or gaps G12D limits assumed: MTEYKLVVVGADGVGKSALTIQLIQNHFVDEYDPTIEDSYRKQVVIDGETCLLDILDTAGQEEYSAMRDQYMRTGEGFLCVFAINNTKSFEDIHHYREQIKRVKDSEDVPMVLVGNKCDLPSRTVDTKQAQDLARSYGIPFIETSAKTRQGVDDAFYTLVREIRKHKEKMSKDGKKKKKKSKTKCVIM
UniProt P01116, 1-164 with tags or gaps C118A/G12D limits assumed: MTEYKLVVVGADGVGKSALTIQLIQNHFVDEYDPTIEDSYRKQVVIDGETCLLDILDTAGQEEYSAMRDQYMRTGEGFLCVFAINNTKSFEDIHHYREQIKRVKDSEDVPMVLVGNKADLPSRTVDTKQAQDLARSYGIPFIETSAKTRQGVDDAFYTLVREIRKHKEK

The target in assay [1] is His-tagged KRAS G12D protein (Homo sapiens (Human), UniProt P01116, G12D). Briefly: KRAS G12D TR-FRET Assay. The conditions noted are these: read-out: KRAS G12D Binding IC50; tested form: TFA. The method, then:
Compounds of interest were prepared in a dose-response titration in DMSO, and 80 nL were added via Labcyte Echo to each well of a 384-well plate (Perkin Elmer 6008280). The His-tagged KRAS G12D protein (Amgen) was diluted to 20 nM in Assay Buffer (20 mM HEPES, pH 7.4, 10 mM MgCl2, 50 mM NaCl, 0.1% BSA, 0.01% Tween-20, 10 μM GDP) and 2 μL was added to the appropriate wells of the 384-well plate. The plate was incubated for 30 minutes at room temperature. Biotinylated KRPep-2d substrate (Amgen) was diluted to 20 nM in Assay Buffer and 2 μL was added to all wells and incubated for 1 hour at room temperature. Detection Reagent (0.4 nM LANCE Eu-W1024 Anti-6×His (Perkin Elmer AD0401), 5 nM streptavidin-d2 (Cisbio 610SADLA)) was prepared in Assay Buffer, then 4 μL was added to the plate and incubated for 1 hour at room temperature. Plates were read using PerkinElmer EnVision (ex: 320 nm, em1: 665 nm, em2: 615 nm) and em1/em2 data was used to generate curve fits using a 4-parameter logistic model to calculate IC50 values.
(TR-FRET usually uses a lanthanide donor and a delayed reading to cut background.)

The target in assay [2] is GDP-bound KRAS protein (aa 1-169), containing both G12D and C118A amino acid substitutions (Homo sapiens (Human), UniProt P01116, C118A/G12D). Nature of the assay: KRAS G12D Coupled Nucleotide Exchange Assay. The conditions noted are these: read-out: KRAS G12D Coupled Exchange IC50; tested form: TFA. It counts as biochemical. The method, then:
KRAS G12D Coupled Nucleotide Exchange Assay
Following compound pre-incubation, purified SOS protein (aa 564-1049) and GTP (Roche 10106399001) were added to the assay wells and incubated for an additional 30 min. To determine the extent of inhibition of SOS-mediated nucleotide exchange, purified GST-tagged cRAF (aa 1-149), nickel chelate AlphaLISA acceptor beads (PerkinElmer AL108R), and AlphaScreen glutathione donor beads (PerkinElmer 6765302) were added to the assay wells and incubated for 10 minutes. The assay plates were then read on a PerkinElmer EnVision Multilabel Reader, using AlphaScreen® technology, and data were analyzed using a 4-parameter logistic model to calculate IC50 values.

Structures were worked out from names or drawings and are uncertain.

Regarding `Cc1cc2[nH]ncc2c2c1CCCCC(=O)N[C@@H]1CCCN(C1)c1nc(OC[C@@]34CCCN3C[C@H](F)C4)nc3c(F)c-2ncc13` [Example 48, (17R)-30-fluoro-24-(((2R,7aS)-2-fluorotetrahydro-1H-pyrrolo[1,2-a]pyrrol-7a(5H)-yl)methoxy)-9-methyl-5,6,16,21,23,25,29-heptaazahexacyclo[24.3.1.1˜17,21˜.0˜2,10˜.0˜3,7˜.0˜22,27˜]hentriaconta-1(30),2,4,7,9,22,24,26,28-nonaen-15-one 2,2,2-trifluoroacetate], the IC50 turned out to be 349 nM in assay [1] and 368 nM in assay [2].

Broadly, the IC50 is the concentration that gives 50% inhibition.
